Test results reported in doi:10.1101/2024.11.10.622873 (bioRxiv, 2024).

Molecular target: C-terminal domain of Clostridium perfringens enterotoxin, in solution (Clostridium perfringens) (UniProt P01558)
Assay: BLI

Row | Substance | binding
1 | human claudin-6 (from UniProt P56747) | binds
2 | human claudin-9 (from UniProt O95484) | binds
3 | human claudin-17 (from UniProt P56750) | binds
4 | human claudin-19 (from UniProt Q8N6F1) | binds

No constants are given. Whether binding was seen depends on the method and setting. Binding can be weak; no strength is given.
